Measurements from “University of Dundee, Small-Polar-MMV Screening Library” (2021), ChEMBL document CHEMBL3988442.

Sequences of proteins named here, by UniProt entry; tags and fusion partners are left off.
UniProt P9WPC5, whole entry: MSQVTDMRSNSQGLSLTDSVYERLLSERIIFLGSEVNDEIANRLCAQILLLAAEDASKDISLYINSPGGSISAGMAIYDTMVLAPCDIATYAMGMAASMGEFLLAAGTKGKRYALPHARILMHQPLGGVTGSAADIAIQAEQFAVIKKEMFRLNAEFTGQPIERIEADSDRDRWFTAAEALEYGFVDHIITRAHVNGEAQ
UniProt P9WPC3, whole entry partner: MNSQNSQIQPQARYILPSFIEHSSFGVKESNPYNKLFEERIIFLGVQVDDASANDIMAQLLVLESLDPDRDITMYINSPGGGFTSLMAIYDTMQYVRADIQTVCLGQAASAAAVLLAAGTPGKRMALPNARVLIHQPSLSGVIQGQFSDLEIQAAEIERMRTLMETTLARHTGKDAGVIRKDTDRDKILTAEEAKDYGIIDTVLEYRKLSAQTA

The filed quantity is “Percent Effect” (%). How 0% and 100% were set is not recorded. Most values in the screen are low, and negative values occur. The compounds are a random part of those screened.

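Protease assay of ClpP1P2, read by the AMC dye that it sets free. Target: ClpP1P2, Mycobacterium tuberculosis (UniProt P9WPC5 and UniProt P9WPC3). Compounds at 50 µM. Direction is inferred from only a few compounds that gave an IC50; most scored high, so higher reads as stronger inhibition. Most other retested compounds had strongly negative values. About 69,000 compounds were tested under these conditions; 0.015% (about 10) showed 50% or more at least once.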

compound	percent effect
Cc1ncc(CNC(CCO)C2CCCCC2)s1 (centres undefined)	-7.41
CC(Nc1ccc(CCN2CCOCC2)cc1)C(=O)N(C)CCC#N (centres undefined)	6.88
Cc1cc(C)n(CC2CCCCN2CC(=O)NC2CCOCC2)n1 (centres undefined)	-17.8
NC(=O)C(NC(=O)c1ccc(NC2CC2)nc1)c1ccccc1 (centres undefined)	5.342
Cc1sc2nc(CCN)nc(N3CCS(=O)(=O)CC3)c2c1C	2.383
Cc1cc(C(F)(F)F)n2nc(C3CCCN3C3CCSCC3)cc2n1 (centres undefined)	24.09
CNS(=O)(=O)CC1CCCN1c1ccc(Cl)cn1 (centres undefined)	-8.506
CC(C(=O)Nc1ccc(N2CCCC2)nc1)n1cccn1 (centres undefined)	-3.255
COCCNC(=O)[C@@H]1CN(c2ncccn2)C[C@H]2OCC[C@H]21	17.2
CNC(=O)CN1CCC(CN(C)Cc2ccncc2Cl)CC1	-1.252
CCCn1ccc(C(=O)N2CCOC(c3nc(-c4cccs4)no3)C2)n1 (centres undefined)	0.6192
c1csc(N2CCCN(Cc3nc(C4CC4)no3)CC2)n1	5.766
CC(C#N)(NC(=O)COc1ccccc1Br)C1CC1 (centres undefined)	-1.448
COCCN1CCC2(COCCN(C(=O)Cc3cccs3)C2)C1 (centres undefined)	0.8106
Cc1cc(F)ccc1-n1cc(O)c(C(=O)NCC2(O)CCC2)n1	-1.749
O=C(NC1CC1)[C@H]1[C@@H]2CN(Cc3ccc(-c4ccn[nH]4)s3)C[C@@H]21	-4.31
COc1ncccc1C1CC(=O)Nc2cc(NS(C)(=O)=O)ccc21 (centres undefined)	-5.657
CN(CCc1cn[nH]c1)C(=O)C(c1ccc(F)cc1)N(C)C (centres undefined)	7.259
CN(C)[C@@H]1CCN(C(=O)c2cccn2C)[C@H]1Cc1cnn(C)c1	-7.262
CC(C)CC(=O)N1CCN(C(=O)NC(C)C)CC2(CC(=O)N(C)C2)C1 (centres undefined)	-10.27
CC1(C2CCN(CC(N)=O)CC2)CN(Cc2ccccc2)C(=O)O1 (centres undefined)	-5.302
CC(C)(C)n1nnnc1CN(CCc1ccccc1)Cc1ccccc1	-14.6
Cn1ccnc1CCNS(=O)(=O)c1cccnc1	0.6564
Cc1cnc(N2C[C@@H]3[C@@H](C(=O)NCC(C)C)CCS(=O)(=O)[C@@H]3C2)nc1	-7.866
CC(C)(C)CC(=O)NCC(=O)NS(=O)(=O)c1cccnc1	-3.79
c1csc(CN2CCCN(c3ccc(Cn4ccnc4)cn3)CC2)c1	-8.432
CCn1nc(C)c(CNC(=O)c2cn(CCC3CCCCN3)nn2)c1C (centres undefined)	1.226
CCOCCNC(=O)Cc1cccc(I)c1	-4.62
CCOCCCNC(=O)CCCC(=O)n1nc(C)c2ccccc21	11.26
COc1cccc(CC(C)NCC(=O)Nc2ccccc2C)c1 (centres undefined)	-0.5707
Cc1nc(N2CCN(S(C)(=O)=O)CC2)cc(-n2cnc(C)c2C)n1	-5.617
Cc1ccccc1CNCC(O)c1ccc(OC(C)C)cc1 (centres undefined)	-4.909
CCCc1noc(CN(C)Cc2ccc3c(c2)OCO3)n1	-0.06106
O=C(NC1CC1)N1CC[C@H](OCC2CC2)[C@@H]1Cc1cccnc1	-27.4
O=C1CSC(c2ccc(O)cc2)c2sccc2N1 (centres undefined)	20.94
Cc1cccc(CN2Cc3ncn(C)c3C(COCC(=O)N(C)C)C2)n1 (centres undefined)	-16.19
Oc1ccc2oc3c(c2c1CN1CCOCC1)CCCC3	9.957
CO[C@@H]1CCN(Cc2cccc(C)n2)[C@@H]2CN(Cc3ccncc3)C[C@@H]21	-16.55
O=C1NCCN(CC2CC2)C12CCN(Cc1ccc3c(c1)OCO3)CC2	18.6
COc1cc(N2CCC3(CC2)CCN(c2cccnc2)C3=O)ncn1	-4.046
CCn1cnnc1C1CCN(C(=O)c2cc3c(s2)CCCC3)CC1	-16.08
Cc1nc2ccnn2c(C)c1CCC(=O)N1CCC(C(N)=O)CC1	-3
c1cncc(OC[C@]23COC[C@H]2CN(Cc2ccsc2)C3)c1	-27.7
CC[C@H](C)[C@H](N)C(=O)Nc1nc(-c2cnc(N(C)CCO)nc2)cs1	1.072
Cc1c(C(=O)N(C)CC(C)O)sc2nc(C(F)(F)F)ccc12 (centres undefined)	11.17
NC(=O)CN1CC(c2nc(C3CC3)no2)C1	-2.469
CC(C)CS(=O)(=O)Nc1ccc2c(c1)OCC(C)(C)C(=O)N2C	23.97
CC(C)C(Sc1nnnn1-c1ccccc1)C(=O)NCc1cccnc1 (centres undefined)	4.875
O=C(c1cccc2[nH]ccc12)N1CCC2(CCOC2)C1 (centres undefined)	0.9795
CC(O)CN1CCN(Cc2csc(-c3ncccn3)n2)CC1 (centres undefined)	10.27
CC(=O)NCCc1ccc(S(=O)(=O)Nc2ccc(C)cc2F)s1	-1.977
CC(C)CN1C(=O)CC[C@]12CC[C@@H](NC(=O)NCc1cccnc1)CC2	-7.961
COC(=O)CNC(=O)CC1COc2ccc(C(=O)N(C)C)cc2N1C (centres undefined)	-3.47
CCC(CC)C(=O)N1CCN(Cc2nc3ccccc3c(=O)[nH]2)CC1	-2.806
CCCC(=O)Nc1ccc2c(c1)C1(CCOCC1)CN2CCOC	-24.84
COc1ccc(-c2cc(N)ccn2)c(OC)c1OC	-6.837
CCc1nc(C2CCCN(C(=O)C3=NN(C(C)C)C(=O)CC3)C2)no1 (centres undefined)	-2.257
O=c1c(C(F)(F)F)cccn1Cc1nnc(-c2cccnc2)o1	-16.06
CCN1CCC(N2CCN(C)C3(CCC(=O)N(CCOC)CC3)C2)CC1 (centres undefined)	-2.919
COC(=O)c1cccc(CNC(=O)c2cc(C(C)C)n(C)n2)c1	-8.586
CC(c1ccon1)N(C)C(=O)C1CCN(C(=O)C2CCC2)CC1 (centres undefined)	2.493
O=C(NCCOc1ccccc1)c1ccc2c(c1)C(=O)NC2=O	-2.569
CCc1nc(C(=O)N2CCN(C)c3ccccc32)c[nH]1	-9.284
CCc1oc(C(=O)NCCNS(C)(=O)=O)cc1CN1CCCC1	-6.275
CCc1nnsc1C(=O)N1CCCN(Cc2cnn(C)c2)CC1	-1.33
CNc1cc2c(nn1)CCN(C(=O)c1ccc3c(c1)OCO3)C2	-9.549
CNC(=O)c1cccnc1NCc1ccc(Cn2ccnc2)cc1	-22.05
Cc1ncc(CNC(=O)c2nn(C)c3c2CS(=O)(=O)CC3)s1	6.334
COc1ccc(C(=O)O)c(OCC(=O)NC(C)c2ccc(F)cc2)c1 (centres undefined)	6.146
CN1CCN(c2ccc(F)cc2NC(=O)NCC[S+](C)[O-])CC1 (centres undefined)	-16.69
CC(O)CN(Cc1cccc(C(=O)N(C)C)c1)c1ccccc1 (centres undefined)	-7.687
C=C/C=c1\c(=C/C)oc2c(NCc3ccccc3)nc(C)nc12	10.84
Cc1nc(N(C)C)ncc1C(=O)N(Cc1ccncc1)CC1CCCO1 (centres undefined)	2.241
Clc1cccnc1OC1CCNCC1	-0.9636
Cc1ccc(S(=O)(=O)N2C[C@@H]3CCN[C@@H]3C2)cc1	10.58
COCCN1CCCn2cnc(CNC3CCCC3)c2C1	9.128
CCCN(CC(=O)NC)C(=O)c1ccc(-c2ccsc2)nc1C	-8.013
CCn1ccnc1CN1CCN(Cc2cnc(C)cn2)CC1C (centres undefined)	-6.048
O=C(CN1CCOc2ccccc2C1)N1Cc2cnn(CCO)c2C1	-2.409
O=C(c1cccc(-n2cccn2)c1)N1CCCOC(Cn2cccn2)C1 (centres undefined)	-9.672
CNC(=O)C1Cn2ccnc2C2(CCN(Cc3cccs3)CC2)O1 (centres undefined)	14.59
CN(C)CCN(Cc1cccnc1)C(=O)c1ccn(-c2ccccc2)n1	0.1191
O=C(Cc1noc(C(=O)NCC2CC2)n1)Nc1cccc(C(F)(F)F)c1	8.082
CC(Cn1ccnc1)NCc1n[nH]c2c1CCC2 (centres undefined)	-0.3175
CC(C)CNC(=O)Cc1cnc(-n2cccc2)s1	-21.62
CC(C)(C)c1nc(CN(Cc2cccs2)C2CCS(=O)(=O)C2)cs1 (centres undefined)	13.46
O=C(NCCO)C1(Cc2cc(-c3ccc(F)cc3F)no2)CCOCC1	-1.765
Cc1cccc(C)c1Oc1ncccc1CNC(=O)C1COC(=O)N1 (centres undefined)	3.723
CC(C)(C)OC(=O)NCC(=O)NCc1ccc(Cl)s1	-5.856
Cc1cc(NC(=O)CN2CCOC(Cn3cccn3)C2)n(C)n1 (centres undefined)	6.67
COCCN(C)C(=O)NCCc1coc(-c2ccc(C)cc2)n1	-6.77
O=C(O)C1(n2cccn2)CCN(Cc2nc(-c3ccccc3)no2)CC1	-9.939
O=C(c1cc(F)cc(F)c1)N1C[C@H]2CNC[C@H]2C1	-7.951
CCCn1nc(C)c(CN2CC3(CCOC3)CCC2=O)c1C (centres undefined)	0.1505
CC(C)c1nccn1C1CCCN(C(=O)c2ccn(C)c(=O)c2)C1 (centres undefined)	5.527

For reference, 6 entries once more:

| compound | percent effect |
|---|---|
| `O=C(NC1CC1)[C@H]1[C@@H]2CN(Cc3ccc(-c4ccn[nH]4)s3)C[C@@H]21` | -4.31 |
| `CCCN(CC(=O)NC)C(=O)c1ccc(-c2ccsc2)nc1C` | -8.013 |
| `CNC(=O)c1cccnc1NCc1ccc(Cn2ccnc2)cc1` | -22.05 |
| `Cc1ncc(CNC(CCO)C2CCCCC2)s1` (centres undefined) | -7.41 |
| `COc1ccc(-c2cc(N)ccn2)c(OC)c1OC` | -6.837 |
| `CC(O)CN(Cc1cccc(C(=O)N(C)C)c1)c1ccccc1` (centres undefined) | -7.687 |